# The list is a part of this screen's results and no random one: it is rich in T/C values a quarter to a half above the control, in often repeated tests (any T/C) and in doses without a T/C. Other doses and runs of a compound stand elsewhere. T/C is the treated group as % of the vehicle group. Some entries give survivors of the animals treated and no T/C: the source files T/C as zero there, which appears to mark a toxic dose or a test without result, not a measured value. Some doses without a T/C left all or most animals alive at the check, yet need not have been tolerated: the source hardly ever lists a survival T/C far under the control, and the zero likely stands for such cases as well. For some assays here: Survivors were counted at the toxicity check, usually on the fifth day, unless a day is given; later deaths do not show. Schedule codes are those of the source, taken here to give the interval after Q, in days (D) or hours (H), and the number of doses after X. Some schedule codes hold Z or #, which are not explained here. For some assays here: For survival time, the PubChem record calls one and a half times the control and up active, and a quarter to a half above the control has no call in these data; cut-offs in other NCI protocols can differ. Some T/C values carry the count of animals alive at the toxicity check (mostly the fifth day); without a count, all were alive then.
# Experiments:
# [1] = system: BDF1 mice, L1210 leukemia sc, survival T/C; assay: NCI In Vivo Anticancer Drug Screen. Data for tumor model L1210 Leukemia (subcutaneous) in B6D2F1 (BDF1) mice; details: T/C endpoint: median survival time, higher T/C = longer survival
# In short: (§1)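 Mice carrying transplanted tumors received test compounds, and survival or tumor size was measured. Values are the treated-group measurement (T) divided by that of the vehicle-treated control group (C).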
# [2] = system: BDF1 mice, L1210 leukemia sc; assay: as above; details: T/C endpoint: median survival time, higher T/C = longer survival
# In short: as §1
structure (smiles),measurement,setting,value
CCOC(=O)NP(=O)(N1CC1)N1CC1,survivor count,"[1]; dose: 8.4 mg/kg/injection, schedule: Q01DX Z (sc), vehicle: water",2 of 10
same,survivor count,"[1]; dose: 8.4 mg/kg/injection, schedule: Q02DX Z (sc), vehicle: water",6 of 10
same,survivor count,"[1]; dose: 8.4 mg/kg/injection, schedule: Q## X Z (sc), vehicle: water",6 of 10
same,survivor count,"[1]; dose: 39.0 mg/kg/injection, schedule: Q## X Z (sc), vehicle: water",6 of 10
same,survivor count,"[1]; dose: 108.0 mg/kg/injection, schedule: Q02DX Z (sc), vehicle: water",5 of 10
same,T/C,"[2]; dose: 14.0 mg/kg/injection, schedule: Q01DX001 (sc), vehicle: water",125 % of control [8 of 10 alive]
same,T/C,"[2]; dose: 14.0 mg/kg/injection, schedule: Q02DX Z (sc), vehicle: water",145 % of control [9 of 10 alive]
same,T/C,"[2]; dose: 14.0 mg/kg/injection, schedule: Q07DX Z (sc), vehicle: water",130 % of control [7 of 10 alive]
same,T/C,"[2]; dose: 14.0 mg/kg/injection, schedule: Q## X Z (sc), vehicle: water",130 % of control [9 of 10 alive]
same,T/C,"[2]; dose: 23.0 mg/kg/injection, schedule: Q01DX001 (sc), vehicle: water",145 % of control
same,T/C,"[2]; dose: 23.0 mg/kg/injection, schedule: Q01DX Z (sc), vehicle: water",140 % of control [9 of 10 alive]
same,T/C,"[2]; dose: 23.0 mg/kg/injection, schedule: Q07DX Z (sc), vehicle: water",130 % of control [8 of 10 alive]
same,T/C,"[2]; dose: 39.0 mg/kg/injection, schedule: Q01DX Z (sc), vehicle: water",130 % of control [8 of 10 alive]
same,T/C,"[2]; dose: 39.0 mg/kg/injection, schedule: Q02DX Z (sc), vehicle: water",140 % of control [9 of 10 alive]
same,T/C,"[2]; dose: 65.0 mg/kg/injection, schedule: Q01DX001 (sc), vehicle: water",135 % of control [7 of 10 alive]
same,T/C,"[2]; dose: 65.0 mg/kg/injection, schedule: Q01DX Z (sc), vehicle: water",130 % of control [8 of 10 alive]
same,T/C,"[2]; dose: 65.0 mg/kg/injection, schedule: Q02DX Z (sc), vehicle: water",135 % of control [9 of 10 alive]
same,T/C,"[2]; dose: 65.0 mg/kg/injection, schedule: Q07DX Z (sc), vehicle: water",135 % of control [9 of 10 alive]
same,T/C,"[2]; dose: 65.0 mg/kg/injection, schedule: Q## X Z (sc), vehicle: water",130 % of control [9 of 10 alive]
same,T/C,"[2]; dose: 108.0 mg/kg/injection, schedule: Q01DX001 (sc), vehicle: water",130 % of control [8 of 10 alive]
same,T/C,"[2]; dose: 108.0 mg/kg/injection, schedule: Q07DX Z (sc), vehicle: water",130 % of control [7 of 10 alive]
same,T/C,"[2]; dose: 108.0 mg/kg/injection, schedule: Q## X Z (sc), vehicle: water",130 % of control
same,T/C,"[2]; dose: 180.0 mg/kg/injection, schedule: Q01DX001 (sc), vehicle: water",130 % of control [8 of 10 alive]
same,T/C,"[2]; dose: 180.0 mg/kg/injection, schedule: Q07DX Z (sc), vehicle: water",130 % of control [8 of 10 alive]
same,T/C,"[2]; dose: 180.0 mg/kg/injection, schedule: Q## X Z (sc), vehicle: water",130 % of control
CC[C@H]1CN2CCc3cc(OC)c(OC)cc3[C@@H]2C[C@@H]1C[C@H]1NCCc2cc(OC)c(OC)cc21,survivor count,"[1]; dose: 14.0 mg/kg/injection, schedule: Q01DX009 (sc), vehicle: saline",8 of 8
same,survivor count,"[1]; dose: 23.0 mg/kg/injection, schedule: Q01DX009 (sc), vehicle: saline",8 of 8
same,survivor count,"[1]; dose: 39.0 mg/kg/injection, schedule: Q04DX003 (sc), vehicle: saline",8 of 8
same,T/C,"[2]; dose: 3.0 mg/kg/injection, schedule: Q03HX003 (sc), vehicle: saline",146 % of control
same,T/C,"[2]; dose: 5.0 mg/kg/injection, schedule: Q01DX009 (sc), vehicle: saline",139 % of control
same,T/C,"[2]; dose: 5.0 mg/kg/injection, schedule: Q03HX003 (sc), vehicle: saline",132 % of control
same,T/C,"[2]; dose: 8.4 mg/kg/injection, schedule: Q01DX009 (sc), vehicle: saline",125 % of control
same,T/C,"[2]; dose: 14.0 mg/kg/injection, schedule: Q04DX003 (sc), vehicle: saline",128 % of control
same,T/C,"[2]; dose: 23.0 mg/kg/injection, schedule: Q04DX003 (sc), vehicle: saline",142 % of control
same,T/C,"[2]; dose: 32.0 mg/kg/injection, schedule: Q01DX001 (ip), vehicle: acid diluted with saline",138 % of control
same,T/C,"[2]; dose: 48.0 mg/kg/injection, schedule: Q01DX001 (ip), vehicle: acid diluted with saline",134 % of control [7 of 10 alive]
Nc1ncn(C2OC(CO)C(O)C2O)c(=O)n1 (stereo not drawn),survivor count,"[1]; dose: 12.0 mg/kg/injection, schedule: Q01DX009 (ip), vehicle: saline",7 of 8
same,survivor count,"[1]; dose: 12.0 mg/kg/injection, schedule: Q01DX009 (sc), vehicle: saline",8 of 8
same,survivor count,"[1]; dose: 96.0 mg/kg/injection, schedule: Q01DX001 (ip), vehicle: saline",4 of 8
same,survivor count,"[1]; dose: 96.0 mg/kg/injection, schedule: Q01DX001 (sc), vehicle: saline",4 of 8
same,T/C,"[2]; dose: 2.0 mg/kg/injection, schedule: Q03HX024 (sc), vehicle: saline, evaluated on day 7",138 % of control
same,T/C,"[2]; dose: 2.0 mg/kg/injection, schedule: Q03HX024 (sc), vehicle: saline, evaluated on day 26",138 % of control
same,T/C,"[2]; dose: 3.0 mg/kg/injection, schedule: Q01DX009 (ip), vehicle: saline",133 % of control
same,T/C,"[2]; dose: 3.0 mg/kg/injection, schedule: Q04DX003 (ip), vehicle: saline",144 % of control
same,T/C,"[2]; dose: 4.0 mg/kg/injection, schedule: Q01DX009 (sc), vehicle: saline, evaluated on day 7",140 % of control
same,T/C,"[2]; dose: 4.0 mg/kg/injection, schedule: Q01DX009 (sc), vehicle: saline, evaluated on day 19",140 % of control
same,T/C,"[2]; dose: 4.0 mg/kg/injection, schedule: Q01DX009 (sc), vehicle: saline, evaluated on day 30",144 % of control
same,T/C,"[2]; dose: 4.0 mg/kg/injection, schedule: Q05DX009 (sc), vehicle: saline, evaluated on day 7",134 % of control
same,T/C,"[2]; dose: 4.0 mg/kg/injection, schedule: Q05DX009 (sc), vehicle: saline, evaluated on day 23",133 % of control
same,T/C,"[2]; dose: 6.0 mg/kg/injection, schedule: Q01DX001 (ip), vehicle: saline",133 % of control
same,T/C,"[2]; dose: 6.0 mg/kg/injection, schedule: Q01DX001 (sc), vehicle: saline",133 % of control
same,T/C,"[2]; dose: 8.0 mg/kg/injection, schedule: Q01DX009 (sc), vehicle: saline, evaluated on day 7",133 % of control
same,T/C,"[2]; dose: 8.0 mg/kg/injection, schedule: Q01DX009 (sc), vehicle: saline, evaluated on day 30",133 % of control
same,T/C,"[2]; dose: 8.0 mg/kg/injection, schedule: Q05DX009 (sc), vehicle: saline, evaluated on day 7",133 % of control
same,T/C,"[2]; dose: 8.0 mg/kg/injection, schedule: Q05DX009 (sc), vehicle: saline, evaluated on day 23",133 % of control
same,T/C,"[2]; dose: 12.0 mg/kg/injection, schedule: Q01DX001 (ip), vehicle: saline",144 % of control
same,T/C,"[2]; dose: 24.0 mg/kg/injection, schedule: Q04DX003 (ip), vehicle: saline",138 % of control
same,T/C,"[2]; dose: 32.0 mg/kg/injection, schedule: Q01DX001 (sc), vehicle: saline",130 % of control
same,T/C,"[2]; dose: 32.0 mg/kg/injection, schedule: Q04DX003 (sc), vehicle: saline",130 % of control
same,T/C,"[2]; dose: 64.0 mg/kg/injection, schedule: Q01DX001 (sc), vehicle: saline",125 % of control
Cc1c(CNc2ccc(C(=O)NC(CC(=O)O)C(=O)O)cc2)ccc2nc(N)nc(N)c12 (stereo not drawn),survivor count,"[1]; dose: 39.0 mg/kg/injection, schedule: Q01DX017 (sc), vehicle: sodium bicarbonate",8 of 8
same,survivor count,"[1]; dose: 65.0 mg/kg/injection, schedule: Q01DX017 (sc), vehicle: sodium bicarbonate",8 of 8
same,T/C,"[2]; dose: 0.08 mg/kg/injection, schedule: Q01DX017 (sc), vehicle: sodium bicarbonate",125 % of control
COC12C(COC(N)=O)C3=C(C(=O)C(C)=C(N)C3=O)N1CC1C2N1C (stereo not drawn),survivor count,"[1]; dose: 32.0 mg/kg/injection, schedule: Q01DX009 (ip), vehicle: saline",10 of 10
same,T/C,"[2]; dose: 14.0 mg/kg/injection, schedule: Q01DX Z (sc), vehicle: saline",130 % of control
same,T/C,"[2]; dose: 16.0 mg/kg/injection, schedule: Q01DX009 (ip), vehicle: saline",125 % of control
same,T/C,"[2]; dose: 16.0 mg/kg/injection, schedule: Q01DX009 (sc), vehicle: saline",134 % of control
same,T/C,"[2]; dose: 23.0 mg/kg/injection, schedule: Q01DX Z (sc), vehicle: saline",130 % of control

# Reference: PubChem BioAssay AID250 (DTP/NCI, 2004)
